This is an account of results in the supplement of paper PMC12819154, “High-throughput peptide-centric local stability assay extends protein–ligand identification to membrane proteins, tissues and bacteria” (Nature Structural & Molecular Biology, 2025).

Sequences of proteins named here, by UniProt entry; tags and fusion partners are left off. A change or cut given only in a name is not applied to a line headed by its entry.
UniProt Q5VTU8: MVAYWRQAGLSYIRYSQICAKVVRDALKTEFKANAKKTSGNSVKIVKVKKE
UniProt Q6DCA0: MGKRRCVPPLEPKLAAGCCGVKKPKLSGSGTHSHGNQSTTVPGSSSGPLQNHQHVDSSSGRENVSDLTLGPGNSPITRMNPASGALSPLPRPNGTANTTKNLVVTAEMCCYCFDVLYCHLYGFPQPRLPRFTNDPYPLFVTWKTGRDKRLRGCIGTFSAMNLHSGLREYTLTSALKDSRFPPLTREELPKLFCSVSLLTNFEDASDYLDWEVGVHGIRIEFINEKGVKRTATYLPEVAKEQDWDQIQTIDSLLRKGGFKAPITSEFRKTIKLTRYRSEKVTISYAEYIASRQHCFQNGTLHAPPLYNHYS
UniProt Q6P2P2: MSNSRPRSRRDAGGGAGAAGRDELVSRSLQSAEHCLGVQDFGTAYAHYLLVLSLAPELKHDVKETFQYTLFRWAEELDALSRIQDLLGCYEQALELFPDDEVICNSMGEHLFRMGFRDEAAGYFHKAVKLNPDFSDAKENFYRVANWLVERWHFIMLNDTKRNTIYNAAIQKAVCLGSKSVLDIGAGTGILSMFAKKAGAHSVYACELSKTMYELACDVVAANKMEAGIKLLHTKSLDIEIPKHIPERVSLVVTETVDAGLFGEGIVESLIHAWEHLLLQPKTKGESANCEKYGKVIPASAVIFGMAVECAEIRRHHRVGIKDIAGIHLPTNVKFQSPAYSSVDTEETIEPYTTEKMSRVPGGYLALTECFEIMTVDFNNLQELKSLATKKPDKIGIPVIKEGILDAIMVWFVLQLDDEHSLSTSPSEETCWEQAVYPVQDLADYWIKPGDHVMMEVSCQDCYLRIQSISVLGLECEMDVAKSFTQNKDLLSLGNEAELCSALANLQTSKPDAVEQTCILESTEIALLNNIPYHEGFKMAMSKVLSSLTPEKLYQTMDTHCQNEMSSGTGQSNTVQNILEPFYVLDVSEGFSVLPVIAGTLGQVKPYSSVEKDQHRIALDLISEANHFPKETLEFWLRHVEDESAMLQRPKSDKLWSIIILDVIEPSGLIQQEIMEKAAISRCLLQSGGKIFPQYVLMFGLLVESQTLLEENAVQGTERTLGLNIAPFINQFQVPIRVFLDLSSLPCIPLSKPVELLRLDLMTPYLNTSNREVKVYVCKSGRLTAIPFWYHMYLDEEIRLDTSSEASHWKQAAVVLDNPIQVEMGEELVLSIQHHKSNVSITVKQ
UniProt Q6UUV9: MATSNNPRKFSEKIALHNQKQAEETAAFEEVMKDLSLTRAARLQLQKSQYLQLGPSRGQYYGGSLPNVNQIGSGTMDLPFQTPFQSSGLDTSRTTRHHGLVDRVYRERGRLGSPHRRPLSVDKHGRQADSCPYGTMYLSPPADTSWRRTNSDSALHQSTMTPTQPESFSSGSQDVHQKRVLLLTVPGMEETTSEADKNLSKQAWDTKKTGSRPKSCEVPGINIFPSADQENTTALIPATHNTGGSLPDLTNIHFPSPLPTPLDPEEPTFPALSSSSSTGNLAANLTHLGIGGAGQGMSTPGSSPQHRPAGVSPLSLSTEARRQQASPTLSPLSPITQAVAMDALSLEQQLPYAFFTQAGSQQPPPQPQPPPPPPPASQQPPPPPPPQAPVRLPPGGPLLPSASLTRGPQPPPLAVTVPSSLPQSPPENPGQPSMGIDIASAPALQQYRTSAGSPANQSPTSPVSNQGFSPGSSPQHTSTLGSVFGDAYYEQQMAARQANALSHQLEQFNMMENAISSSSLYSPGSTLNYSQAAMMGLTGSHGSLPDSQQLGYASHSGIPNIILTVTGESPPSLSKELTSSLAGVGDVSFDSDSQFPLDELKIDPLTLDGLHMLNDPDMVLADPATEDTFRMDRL
UniProt Q5VTB9: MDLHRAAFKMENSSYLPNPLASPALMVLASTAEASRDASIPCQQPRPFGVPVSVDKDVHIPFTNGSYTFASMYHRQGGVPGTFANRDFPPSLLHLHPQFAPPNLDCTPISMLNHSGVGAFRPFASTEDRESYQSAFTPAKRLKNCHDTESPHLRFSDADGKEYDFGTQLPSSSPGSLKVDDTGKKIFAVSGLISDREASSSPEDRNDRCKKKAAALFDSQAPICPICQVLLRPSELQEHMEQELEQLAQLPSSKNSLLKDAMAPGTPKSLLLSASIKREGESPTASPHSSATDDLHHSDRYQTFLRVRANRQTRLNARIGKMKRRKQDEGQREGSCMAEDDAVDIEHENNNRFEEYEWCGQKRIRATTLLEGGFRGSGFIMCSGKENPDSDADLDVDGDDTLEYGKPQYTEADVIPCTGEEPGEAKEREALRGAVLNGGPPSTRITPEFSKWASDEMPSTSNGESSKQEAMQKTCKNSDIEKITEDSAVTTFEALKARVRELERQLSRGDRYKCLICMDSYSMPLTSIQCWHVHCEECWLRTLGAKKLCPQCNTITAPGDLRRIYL
UniProt Q6PJI9: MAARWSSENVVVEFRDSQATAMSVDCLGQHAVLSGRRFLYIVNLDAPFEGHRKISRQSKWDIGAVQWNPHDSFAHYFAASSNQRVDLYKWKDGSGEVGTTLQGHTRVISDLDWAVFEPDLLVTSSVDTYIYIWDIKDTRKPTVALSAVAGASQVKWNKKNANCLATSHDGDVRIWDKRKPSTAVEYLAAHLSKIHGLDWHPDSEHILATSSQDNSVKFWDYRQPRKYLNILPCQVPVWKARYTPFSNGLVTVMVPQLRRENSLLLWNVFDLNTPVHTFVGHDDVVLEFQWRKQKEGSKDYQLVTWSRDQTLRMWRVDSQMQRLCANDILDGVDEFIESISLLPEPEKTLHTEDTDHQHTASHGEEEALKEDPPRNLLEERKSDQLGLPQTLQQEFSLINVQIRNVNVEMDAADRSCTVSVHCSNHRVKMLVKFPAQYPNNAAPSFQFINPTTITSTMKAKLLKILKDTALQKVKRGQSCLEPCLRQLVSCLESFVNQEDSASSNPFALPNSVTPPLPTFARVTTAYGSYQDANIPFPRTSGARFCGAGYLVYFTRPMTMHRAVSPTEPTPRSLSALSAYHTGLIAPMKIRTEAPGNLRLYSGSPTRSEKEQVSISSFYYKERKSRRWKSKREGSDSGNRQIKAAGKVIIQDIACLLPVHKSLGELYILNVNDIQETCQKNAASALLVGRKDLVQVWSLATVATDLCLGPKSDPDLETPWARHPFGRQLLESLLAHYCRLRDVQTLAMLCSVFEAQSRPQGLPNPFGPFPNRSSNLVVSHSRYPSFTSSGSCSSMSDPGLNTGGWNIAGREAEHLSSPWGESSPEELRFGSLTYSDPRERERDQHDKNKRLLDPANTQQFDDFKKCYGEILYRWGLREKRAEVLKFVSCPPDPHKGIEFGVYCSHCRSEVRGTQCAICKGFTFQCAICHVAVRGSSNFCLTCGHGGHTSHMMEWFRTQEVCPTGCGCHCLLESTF
UniProt Q6IQ22: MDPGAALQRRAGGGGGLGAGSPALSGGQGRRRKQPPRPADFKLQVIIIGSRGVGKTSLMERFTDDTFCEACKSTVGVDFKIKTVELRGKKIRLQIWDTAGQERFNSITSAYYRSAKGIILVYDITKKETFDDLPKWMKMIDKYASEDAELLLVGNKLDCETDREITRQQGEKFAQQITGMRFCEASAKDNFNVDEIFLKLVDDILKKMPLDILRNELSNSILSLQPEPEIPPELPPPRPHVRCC
UniProt Q6P2D0: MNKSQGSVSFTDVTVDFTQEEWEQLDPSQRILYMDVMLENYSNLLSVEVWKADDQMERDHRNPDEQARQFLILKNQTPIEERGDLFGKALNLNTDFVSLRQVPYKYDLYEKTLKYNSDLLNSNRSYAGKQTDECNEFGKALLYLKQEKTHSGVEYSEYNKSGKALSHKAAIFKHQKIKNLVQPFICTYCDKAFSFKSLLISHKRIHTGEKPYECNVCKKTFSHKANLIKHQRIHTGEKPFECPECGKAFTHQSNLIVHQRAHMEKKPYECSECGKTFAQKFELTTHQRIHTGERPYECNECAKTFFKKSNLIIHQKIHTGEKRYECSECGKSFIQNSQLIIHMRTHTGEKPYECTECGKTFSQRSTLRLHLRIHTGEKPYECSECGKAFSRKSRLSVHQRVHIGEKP
UniProt Q658P3: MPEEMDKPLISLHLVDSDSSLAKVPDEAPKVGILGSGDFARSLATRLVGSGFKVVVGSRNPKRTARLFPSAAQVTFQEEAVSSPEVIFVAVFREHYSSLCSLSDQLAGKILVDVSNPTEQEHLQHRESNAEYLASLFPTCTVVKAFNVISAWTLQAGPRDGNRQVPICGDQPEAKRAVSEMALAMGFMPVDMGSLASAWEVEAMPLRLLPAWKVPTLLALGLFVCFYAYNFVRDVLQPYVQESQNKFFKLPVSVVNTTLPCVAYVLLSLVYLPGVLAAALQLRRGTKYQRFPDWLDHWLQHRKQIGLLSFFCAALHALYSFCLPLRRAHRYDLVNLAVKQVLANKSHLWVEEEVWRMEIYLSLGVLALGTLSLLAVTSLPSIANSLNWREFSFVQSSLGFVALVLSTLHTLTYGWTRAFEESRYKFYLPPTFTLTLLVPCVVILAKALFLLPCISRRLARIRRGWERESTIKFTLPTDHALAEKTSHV

The list shows a part of the results. Most entries show no effect beyond the scatter of the controls.

Compound in this test: Cc1nc(Nc2ncc(C(=O)Nc3c(C)cccc3Cl)s2)cc(N2CCN(CCO)CC2)n1 [dasatinib]
Nature of the test: log2 fold change of tryptic peptide abundance, ligand vs vehicle (limited proteolysis) (log2 ratio); higher = more trypsin-susceptible (destabilized). As to conditions: ligand concentration: 5 uM; sample: K562 cleared lysate.
For the target “UniProt Q5VTU8 (peptide sequence: YSQICAK, peptide start residue: 15)”, the log2 fold change was found to be 0.0211.

For the target “AMMECR1L (peptide sequence: LAAGCCGVK, peptide start residue: 14) (UniProt Q6DCA0)”, the log2 fold change was -0.0679.

As for “UniProt Q6P2P2 (peptide sequence: DEAAGYFHK, peptide start residue: 118)”, the log2 fold change is 0.305.

On to “PRPF8 (peptide sequence: QRVESHFDLELR, peptide start residue: 675) (UniProt Q6P2Q9)”, for which the log2 fold change is 0.111.

On to “CRTC1 (peptide sequence: QAWDTKK, peptide start residue: 202) (UniProt Q6UUV9)”, for which the log2 fold change is -0.224.

Turning to “RNF220 (peptide sequence: KLCPQCNTITAPGDLRR, peptide start residue: 547) (UniProt Q5VTB9)”, the log2 fold change stood at 0.145.

In the case of “WDR59 (peptide sequence: QLLESLLAHYCR, peptide start residue: 727) (UniProt Q6PJI9)”, the log2 fold change amounted to 0.305.

For the target “RAB12 (peptide sequence: LQVIIIGSR, peptide start residue: 43) (UniProt Q6IQ22)”, the log2 fold change was 0.35.

For “ZFP1 (peptide sequence: DHRNPDEQAR, peptide start residue: 59) (UniProt Q6P2D0)”, the log2 fold change was -0.286.

For the target “STEAP3 (peptide sequence: QVPICGDQPEAKR, peptide start residue: 164) (UniProt Q658P3)”, the log2 fold change was determined as 0.387.
